No constants are given. Whether binding was seen depends on the method and setting. In cells and extracts the contact can be indirect. Binding calls can cover weak binding; strength is not graded here.

This experiment deals with T1, CD133 (UniProt O43490).
T1 sequence: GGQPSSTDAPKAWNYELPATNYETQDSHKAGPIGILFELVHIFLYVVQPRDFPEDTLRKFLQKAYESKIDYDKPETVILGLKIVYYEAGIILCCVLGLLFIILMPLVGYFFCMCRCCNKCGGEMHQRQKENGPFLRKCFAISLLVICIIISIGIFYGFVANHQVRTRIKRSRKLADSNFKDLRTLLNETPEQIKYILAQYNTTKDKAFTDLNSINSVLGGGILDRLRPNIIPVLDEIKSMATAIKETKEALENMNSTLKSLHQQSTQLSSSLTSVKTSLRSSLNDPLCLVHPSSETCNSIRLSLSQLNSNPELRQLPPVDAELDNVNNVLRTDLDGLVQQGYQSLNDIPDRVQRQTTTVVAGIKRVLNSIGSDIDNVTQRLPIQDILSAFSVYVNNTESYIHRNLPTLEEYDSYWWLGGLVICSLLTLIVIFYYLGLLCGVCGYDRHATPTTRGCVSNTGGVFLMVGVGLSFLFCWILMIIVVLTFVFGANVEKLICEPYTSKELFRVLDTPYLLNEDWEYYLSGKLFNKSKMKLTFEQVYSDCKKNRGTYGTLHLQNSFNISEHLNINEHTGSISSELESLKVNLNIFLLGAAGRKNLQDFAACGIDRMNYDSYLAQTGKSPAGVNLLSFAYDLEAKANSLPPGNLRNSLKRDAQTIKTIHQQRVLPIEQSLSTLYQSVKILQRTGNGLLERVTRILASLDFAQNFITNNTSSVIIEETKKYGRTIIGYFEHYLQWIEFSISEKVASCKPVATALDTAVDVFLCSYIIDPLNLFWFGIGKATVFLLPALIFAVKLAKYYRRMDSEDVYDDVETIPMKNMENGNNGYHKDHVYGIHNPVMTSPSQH
Nature of the experiment: co-IP; lysates of BAKP cells induced with Dox for 24 h to express CD133; immunoprecipitation with anti-CD133 bound to beads; SDS-PAGE and immunoblot with anti-p85 subunit of PI3K. Background: A western blot detects proteins with antibodies after separation by electrophoresis.

“p85 subunit of PI3K (human (endogenous in BAKP))”: the binding result was “binds”.

These data come from PMC11852824.
